Patent US20220275025A1, “BONE REMODELING REGULATORY PEPTIDES AND APPLICATION THEREOF” (THE SECOND XIANGYA HOSPITAL OF CENTRAL SOUTH UNIVERSITY, priority 2019, published 2022)
These are yes or no findings as the source states them, for the method shown. Some results given as binding are weak or reduced against the parent protein; the word gives no strength. Where a sequence is shown, tags or fusion partners need not be part of it.

Assays:
[1] = biological target: T1, mOSCAR-His fusion protein (mouse) (UniProt Q8VBT3); assay: solid-phase binding on 96-well plate: peptide coated, mOSCAR-His added 3 h at 37 C, HRP-labelled antibody, OPD, absorbance at 492 nm
T1 sequence (looked up): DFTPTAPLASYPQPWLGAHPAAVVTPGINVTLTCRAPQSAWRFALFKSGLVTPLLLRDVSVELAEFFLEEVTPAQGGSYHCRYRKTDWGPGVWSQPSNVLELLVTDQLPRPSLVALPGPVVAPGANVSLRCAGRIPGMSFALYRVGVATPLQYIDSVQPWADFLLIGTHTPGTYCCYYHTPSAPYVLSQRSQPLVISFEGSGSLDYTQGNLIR

[2] = biological target: T1, mOSCAR-His fusion protein (mouse); assay: solid-phase binding experiment, peptide coated on plate, mOSCAR-His in solution
[3] = biological target: T1, mOSCAR-His fusion protein (mouse); assay: solid phase binding experiment, peptide coated on plate, mOSCAR-His in solution, absorbance at 492 nm

Measured: binding

GAPGPAGFA (third amino acid Pro hydroxylated (hydroxyproline, Hyp)) [OSC^pep]
binds: all assays above

GPPGATGFP (third amino acid Pro hydroxylated (hydroxyproline, Hyp)) [A1-5-3]
binds: all assays above

GAPGPQGFQ (third amino acid Pro hydroxylated (hydroxyproline, Hyp)) [A1-1]
binds: all assays above

GPPGPAGFA (third amino acid Pro hydroxylated (hydroxyproline, Hyp)) [A1-4-1]
binds: all assays above
